Data as given in publication PMC7819943, “Rice protein-binding microarrays: a tool to detect cis-acting elements near promoter regions in rice”.
The other results are listed elsewhere or left out.

The sequences below were run against T1, OsSMF1 (Oryza sativa, UniProt Q6ZLB0 1-436) (assay: protein-binding microarray (RPBM); PBS, 2% BSA, 51.3 ng/ul salmon testes DNA, 50 uM zinc acetate, 200 nM TF, 25 C, 1 h; high values mean tight binding). Conditions: protein: recombinant; tags: N-terminal polyhistidine and DsRed monomer fusion (pET32a); chain copies: 2; label: CyDye5-dUTP incorporated in the synthesized complementary strand; 3' TTTTT single-stranded linker to array surface; dsDNA, one strand shown.
T1 sequence: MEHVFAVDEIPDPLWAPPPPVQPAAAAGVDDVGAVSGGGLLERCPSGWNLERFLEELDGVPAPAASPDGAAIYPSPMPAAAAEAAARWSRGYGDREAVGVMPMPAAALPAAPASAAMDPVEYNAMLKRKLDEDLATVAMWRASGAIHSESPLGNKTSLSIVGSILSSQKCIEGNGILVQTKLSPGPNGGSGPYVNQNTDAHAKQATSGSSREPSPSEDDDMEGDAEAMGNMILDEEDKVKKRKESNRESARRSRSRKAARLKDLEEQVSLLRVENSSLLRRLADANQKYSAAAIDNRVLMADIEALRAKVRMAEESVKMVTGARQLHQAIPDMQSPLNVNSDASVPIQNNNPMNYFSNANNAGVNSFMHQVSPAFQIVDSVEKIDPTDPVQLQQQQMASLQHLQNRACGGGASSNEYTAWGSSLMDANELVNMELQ
Method in brief: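 In PBS with 2% BSA, salmon testes DNA and 50 µM zinc acetate, 200 nM protein was incubated on a custom Agilent array at 25 °C for 1 h and then washed off. The array had been made double-stranded by primer extension with Cy5-dUTP and blocked with 2% BSA. The proteins were transcription factors fused N-terminally to polyhistidine and DsRed, expressed in E. coli BL21-CodonPlus and purified on Ni–NTA. The binding signal is per-feature fluorescence intensity (arbitrary units) from an Axon 4000B scanner.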

First: TCTCCAGTTTCTGGCCAGCGAGGCATGATAGCCACCTCAACGGAGTCACCTAGTGCAG
Second: ATGAAGCTTTACGTAAGCGGTGACGAAGCAAGTGCACATGCGGAGTCACCTAGTGCAG
The binding signal of the first is lower: 3280 fluorescence intensity (a.u.) for the first, 5480 fluorescence intensity (a.u.) for the second.

Compared with “CTAATGATCATTCATGTGAATATGACATTTCACCCGGAAACGGAGTCACCTAGTGCAG”, “GAGGGAGGCGGCAATGATCTCCTCGACCTCTCGCTACTCCCGGAGTCACCTAGTGCAG” is higher in binding signal: 3160 fluorescence intensity (a.u.) for the first, 3210 fluorescence intensity (a.u.) for the second.

First: GACTTCAAGACACAATGTGTGTATGACAGGTTGGACCATACGGAGTCACCTAGTGCAG
Second: TCCACACCAACCAATCGCAAATCACGCCGACGTGGAGCGCCGGAGTCACCTAGTGCAG
The binding signal of the first is lower: 4340 fluorescence intensity (a.u.) for the first, 14500 fluorescence intensity (a.u.) for the second.

First: GGCCCTTGGTGAGGTGGATGGAGACGGCGTGGGACTTGACCGGAGTCACCTAGTGCAG
Second: CATACCGACATACGTATACATTGACATCATCATTGACGTGCGGAGTCACCTAGTGCAG
The binding signal of the first is higher: 4850 fluorescence intensity (a.u.) for the first, 4680 fluorescence intensity (a.u.) for the second.

Compared with “CACTCACTGGCTGCACGTCATTTGATTATGCATTTTCCGGCGGAGTCACCTAGTGCAG”, “TTATATACGTGTTCTCGGTGACTTAAAAGCCAATGCTTAACGGAGTCACCTAGTGCAG” is lower in binding signal: 6260 fluorescence intensity (a.u.) for the first, 3140 fluorescence intensity (a.u.) for the second.

First: AGGCCTAACGTGGGCCAGGCCACTATATGCAGATGGGCTACGGAGTCACCTAGTGCAG
Second: GAAGCCGTAGTCGGAGCCGTCCATGTGGCCGGCTGGAGCTCGGAGTCACCTAGTGCAG
The binding signal of the first is lower: 3330 fluorescence intensity (a.u.) for the first, 4390 fluorescence intensity (a.u.) for the second.

Compared with “ATTTCAATGTCAAGATGAGAAGGGAATTTAAGAGCCTGCACGGAGTCACCTAGTGCAG”, “ATTTCAGGCGCCGCTCGGCACGGCCGTGTCACGACGCGATCGGAGTCACCTAGTGCAG” is lower in binding signal: 22800 fluorescence intensity (a.u.) for the first, 4510 fluorescence intensity (a.u.) for the second.

Compared with “GTTGCGGCGGGCGTGCGCTGCGGATCCCGGTGGCAGCACGCGGAGTCACCTAGTGCAG”, “ACTATGTTCACGAGTCATACGGTCGGATCATACAAGATTGCGGAGTCACCTAGTGCAG” is lower in binding signal: 3780 fluorescence intensity (a.u.) for the first, 3570 fluorescence intensity (a.u.) for the second.

First: TATATAACCTAAAATGGAGGAAGTAGGAAATATGTAATTCCGGAGTCACCTAGTGCAG
Second: CTAGTTCCAGATGATCCAGCTGAGAGCTCCAAGGCTATTCCGGAGTCACCTAGTGCAG
The binding signal of the first is lower: 4630 fluorescence intensity (a.u.) for the first, 22800 fluorescence intensity (a.u.) for the second.

Compared with “CCTCTACGGGTTGCAAGTGGCCACGCACAGTTGCGTTGGTCGGAGTCACCTAGTGCAG”, “CGTCAGATACTGCGGTGATAATGTATACAAGTGGCAGCACCGGAGTCACCTAGTGCAG” is higher in binding signal: 4010 fluorescence intensity (a.u.) for the first, 4830 fluorescence intensity (a.u.) for the second.

Going from “ATGGTTTTACACACATACAGATGATGTAATCATGTAATCCCGGAGTCACCTAGTGCAG” to “CCTTCACCTGTCTCCCATATGCGGCGTCACCCCACCTGATCGGAGTCACCTAGTGCAG”, the binding signal falls from 5840 fluorescence intensity (a.u.) to 4690 fluorescence intensity (a.u.).

Going from “CCATCCACCATTCACTTTCCCACCTACCTCCACTATTTATCGGAGTCACCTAGTGCAG” to “AAATTGGGGAACACTGTTCCTAGTAAGCAAAAGCTTCTTCCGGAGTCACCTAGTGCAG”, the binding signal rises from 3430 fluorescence intensity (a.u.) to 4200 fluorescence intensity (a.u.).

First: GTCGCCTCCCACGAACATGCCGCGTCGACGACGGCATGCACGGAGTCACCTAGTGCAG
Second: ACTTATGATATGAAACGGAGAGAGTAGTAGATAAGATTTTCGGAGTCACCTAGTGCAG
The binding signal of the first is lower: 4740 fluorescence intensity (a.u.) for the first, 28400 fluorescence intensity (a.u.) for the second.

First: CACTTATTTTGCAACGGAGGTAGTATACAAGGCAACTGGTCGGAGTCACCTAGTGCAG
Second: CTCTTCTCCTTTTCTTCCCTGTCATCTGTGAGCTTTTGCTCGGAGTCACCTAGTGCAG
The binding signal of the first is higher: 4230 fluorescence intensity (a.u.) for the first, 3610 fluorescence intensity (a.u.) for the second.

First: TCGACTCTGCCGGTGAGAGCGGTAGCGCGTGGCGGCCGTACGGAGTCACCTAGTGCAG
Second: CTTTTCTTGTATATAAACGCGACCTTATAAAATTACTAGTCGGAGTCACCTAGTGCAG
The binding signal of the first is lower: 3640 fluorescence intensity (a.u.) for the first, 22600 fluorescence intensity (a.u.) for the second.

First: GGCTCCGGCTGCGCCGCGTCAACCGGCGGCACGAGGTGGGCGGAGTCACCTAGTGCAG
Second: GTCTCATTGTCCTCTAACGTGTGTCACTAACATATAGTTCCGGAGTCACCTAGTGCAG
The binding signal of the first is higher: 3920 fluorescence intensity (a.u.) for the first, 3770 fluorescence intensity (a.u.) for the second.

First: TTCAGTTCAAGCTGCCGTGTCAGGCTGCAACAAGGTAATCCGGAGTCACCTAGTGCAG
Second: TTTAACACGTAATTGATCATGACTCATGAGCTAATCATCCCGGAGTCACCTAGTGCAG
The binding signal of the first is lower: 5650 fluorescence intensity (a.u.) for the first, 6980 fluorescence intensity (a.u.) for the second.

Going from “CGACACTTGCAGTAATCTATAACGAGTAACCAAAATTCGACGGAGTCACCTAGTGCAG” to “CCTGTGTGTTGGTGCTGTCGGTATGTGGGTGGTGGTATTTCGGAGTCACCTAGTGCAG”, the binding signal falls from 8700 fluorescence intensity (a.u.) to 3990 fluorescence intensity (a.u.).

Going from “AAGTTTGTTTTGTCACGCCACCCAGGCTGACGCGACAACACGGAGTCACCTAGTGCAG” to “TTGGAGTTCTACAACCGACAGGTGCATGTTTCTCTGTACTCGGAGTCACCTAGTGCAG”, the binding signal rises from 8290 fluorescence intensity (a.u.) to 19400 fluorescence intensity (a.u.).

Compared with “TTGCAACCCACAAATATATGTGAGGCCACGTCATCGAGAACGGAGTCACCTAGTGCAG”, “GTAGACGGCGGAGGGCTCGCTGCGGGAGGGCTTGGAGTGGCGGAGTCACCTAGTGCAG” is lower in binding signal: 19500 fluorescence intensity (a.u.) for the first, 3760 fluorescence intensity (a.u.) for the second.

Compared with “CAGGCATGGTTCGGCCTGCCCTGTCACGGCCCATCTCGTGCGGAGTCACCTAGTGCAG”, “CACAGTGGGCGGAACCCCAAGCGCATGGACACGGGTCTGCCGGAGTCACCTAGTGCAG” is higher in binding signal: 4240 fluorescence intensity (a.u.) for the first, 36800 fluorescence intensity (a.u.) for the second.
